Results are given in words; binding and its absence hold for the method and conditions named. Some binding calls cover weakened binding; strength is not graded here.

Amino acid sequences for entries named in this document (tags omitted). Residues count along the entry.
UniProt P47871, residues 27-432: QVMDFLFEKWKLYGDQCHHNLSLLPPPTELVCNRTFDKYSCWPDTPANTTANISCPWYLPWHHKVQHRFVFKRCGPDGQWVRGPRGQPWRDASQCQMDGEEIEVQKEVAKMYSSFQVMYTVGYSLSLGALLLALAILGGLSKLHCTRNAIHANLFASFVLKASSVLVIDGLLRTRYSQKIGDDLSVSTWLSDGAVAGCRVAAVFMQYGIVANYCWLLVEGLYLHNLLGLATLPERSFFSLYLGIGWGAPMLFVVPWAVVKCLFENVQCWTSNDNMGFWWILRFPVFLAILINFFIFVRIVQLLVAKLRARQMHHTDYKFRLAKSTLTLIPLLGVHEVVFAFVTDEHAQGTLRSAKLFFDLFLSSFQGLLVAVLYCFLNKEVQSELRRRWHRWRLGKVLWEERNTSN
UniProt P43220, residues 24-463: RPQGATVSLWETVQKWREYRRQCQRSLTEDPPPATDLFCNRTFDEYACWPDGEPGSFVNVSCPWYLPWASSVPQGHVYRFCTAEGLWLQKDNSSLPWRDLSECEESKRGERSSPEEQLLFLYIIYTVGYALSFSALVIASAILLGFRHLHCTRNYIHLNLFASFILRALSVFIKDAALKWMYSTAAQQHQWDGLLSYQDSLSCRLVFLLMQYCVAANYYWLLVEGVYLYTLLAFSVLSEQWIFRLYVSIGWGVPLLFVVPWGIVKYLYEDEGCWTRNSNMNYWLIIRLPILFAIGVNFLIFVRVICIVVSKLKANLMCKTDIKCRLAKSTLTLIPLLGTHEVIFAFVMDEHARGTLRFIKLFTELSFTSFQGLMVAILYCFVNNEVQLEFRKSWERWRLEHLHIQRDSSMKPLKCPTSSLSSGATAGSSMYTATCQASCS

The text below walks through data of paper PMC8881610.

Test [1] concerns the target HA-GCGR(27-432)-HPC4 (human) (UniProt P47871). Put plainly: radioligand binding; only the binder purified.
In test [2] the target is HA-GLP-1R(24-463)-LgBiT-2MBP (human) (UniProt P43220). The test is described as follows: radioligand binding; only the binder purified.

B1: peptide 20 (peptide)
peptide: HAQGTFTSDKSKYLDERAAQDFVQWLLDGGPSSGAPPPS
As for B1, the binding entry in test [1] and in test [2] was “binds” each time.
